{
  "source": "PubChem BioAssay AID1347076",
  "about": "(National Center for Advancing Translational Sciences (NCATS), 2019)",
  "note": "In all, about 400,000 compounds went through this assay and about 13,000 (3.2%) were called active. Inconclusive results, whose numbers are uncertain, are shown with a selection of clear calls. Calls follow the shape of the dose curve; as a rule, active = well fitted cell-killing curve with a large enough effect; inconclusive = small, poorly fitted or top-dose-only effect, or effect the other way; inactive = flat fitted curve, though single readings scatter. Where the call is inconclusive, the potency comes from a doubtful curve fit. % is scaled to controls: 0 for no effect and ±100 for the full control effect; potency is read from the fitted curve at half-maximal effect.",
  "data": [
    {"test": "qHTS assay for MDR1-selective chemotherapeutics: Primary screen using the drug-selected MDR subline cells KB-V1; also: nearly all actives have a fitted effect of over 60% in size", "conditions": "KB-V1 MDR cells viability, CellTiter-Glo, 72 h; activity change, negative = cytotoxicity: at 46.1 µM (top of the series)", "how_it_was_run": "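Readout: CellTiter-Glo luminescence, 10 min after addition. Cells: KB-V1 MDR subline, 72 h at 37 degrees C with compound. Analysis: corrected, normalized data fitted to concentration-effect curves.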", "values": [
      {"smiles": "CC(=O)N(C(C)=O)N1C(=O)C2C3c4ccccc4C(c4ccccc43)C2C1=O", "note": "(stereo not drawn)", "Potency": "inconclusive: 8.2 µM [cytotoxic, partial curve, poor fit]"},
      {"smiles": "COc1ccc(CN2CCc3ccc(NC(=O)c4ccncc4)cc3C2)c(F)c1", "Potency": "inconclusive: 14.6 µM [cytotoxic, partial curve]"},
      {"smiles": "COc1ccc(CCNC(=O)c2ccccc2NC(=O)C2=C(C)OCCS2)cc1OC", "Potency": "inconclusive: 29.1 µM [cytotoxic, single point]"},
      {"smiles": "CCN(C(=O)COC(=O)c1c2c(nc3ccccc13)CCC2)c1c(N)n(Cc2ccccc2)c(=O)[nH]c1=O", "Potency": "inconclusive: 20.6 µM [rising, partial curve, poor fit]"},
      {"smiles": "Nc1ccc2c(c1)C(=Cc1cccnc1)c1ccccc1-2", "Potency": "inconclusive: 29.1 µM [cytotoxic, single point]"},
      {"smiles": "O=c1c2ccccc2cnn1CCOc1cccc(Br)c1", "Potency": "inconclusive: 18.4 µM [cytotoxic, partial curve]"},
      {"smiles": "O=[N+]([O-])c1c(Nc2ccccn2)cc(Cl)c2nonc12", "Potency": "inconclusive: 29.1 µM [cytotoxic, single point]"},
      {"smiles": "Nc1nc(CN2CCN(C(c3ccccc3)c3ccccc3)CC2)nc(Nc2ccccc2)n1", "activity change, negative = cytotoxicity": "inactive: -0.556%"},
      {"smiles": "O=C(O)C1C2CC2CN1C(=O)c1ccc(Cl)cc1Cl", "note": "(stereo not drawn)", "Potency": "inconclusive: 4.61 µM [rising, full curve, poor fit]"},
      {"smiles": "Cc1ccc(S(=O)(=O)Oc2ccccc2/C=N/Nc2ccc(C(=O)O)cc2)cc1", "Potency": "inconclusive: 1.3 µM [rising, full curve]"},
      {"smiles": "O=C(NCC1CCCO1)c1ccc(Cn2c(=S)[nH]c3ccccc3c2=O)cc1", "note": "(stereo not drawn)", "Potency": "inconclusive: 29.1 µM [cytotoxic, single point]"},
      {"smiles": "CC[n+]1c(C)n(-c2ccccc2)c2ccc(C(=O)OC)cc21", "activity change, negative = cytotoxicity": "inactive: 8.02%"},
      {"smiles": "COc1ccc(CCNc2ncnc3c2cnn3-c2ccc(C)c(Cl)c2)cc1", "Potency": "inconclusive: 2.31 µM [rising, partial curve, poor fit]"},
      {"smiles": "COC(CNC(=O)C1CCCN1C(=O)OCc1ccccc1)OC", "note": "(stereo not drawn)", "activity change, negative = cytotoxicity": "inactive: 17.3%"},
      {"smiles": "COc1ccc(NC(=O)CN(C)C(=O)C2=COCCO2)cc1", "activity change, negative = cytotoxicity": "inactive: 2.83%"},
      {"smiles": "OCCN(CC(O)Cn1ccc2ccccc21)CC(O)Cn1ccc2ccccc21", "note": "(stereo not drawn)", "Potency": "active: 14.6 µM"},
      {"smiles": "Cc1ccc(S(=O)(=O)c2nc(-c3ccccc3F)oc2N2CC(C)OC(C)C2)cc1", "note": "(stereo not drawn)", "Potency": "inconclusive: 18.4 µM [cytotoxic, partial curve, poor fit]"},
      {"smiles": "CCn1cc(C(=O)OCC(=O)c2ccccc2)c(=O)c2ccc(C)nc21", "Potency": "inconclusive: 6.51 µM [cytotoxic, partial curve]"},
      {"smiles": "CCOc1ccc(-c2nn(-c3ccccc3)cc2/C=C2\\SC(=S)N(Cc3ccco3)C2=O)cc1", "activity change, negative = cytotoxicity": "inconclusive: -60.2%"},
      {"smiles": "CN(C)c1ccc(CNC(=O)CN2C(=O)C3CCCCN3c3ccc(C(=O)N4CCCC4)cc32)cc1", "note": "(stereo not drawn)", "activity change, negative = cytotoxicity": "inactive: -14.6%"},
      {"smiles": "CCC(=O)N1CCc2cc(S(=O)(=O)NC(CC(C)C)C(=O)Nc3cccc(C)c3C)ccc21", "note": "(stereo not drawn)", "activity change, negative = cytotoxicity": "inactive: -27.6%"},
      {"smiles": "COc1ccc(-c2nn(-c3ccccc3F)cc2CNCCn2nc(C)cc2C)cc1", "Potency": "inconclusive: 18.4 µM [cytotoxic, single point]"},
      {"smiles": "C[C@@H]1CN([C@H](C)CO)C(=O)c2cc(Br)cnc2O[C@@H]1CN(C)Cc1ccc(F)cc1", "activity change, negative = cytotoxicity": "inactive: 0%"},
      {"smiles": "COc1ccccc1C(=O)n1nc(-c2ccccc2)nc1NCc1ccc(Cl)cc1", "Potency": "active: 14.6 µM"},
      {"smiles": "Cc1ccc(N(CCC#N)C(=O)CCl)cc1C", "Potency": "inconclusive: 18.4 µM [cytotoxic, single point]"},
      {"smiles": "CN(C(=O)CSc1ncnc2sccc12)C1CCCCC1", "Potency": "active: 5.17 µM"},
      {"smiles": "Cc1ccc(N2CCN(C(=O)c3cccn4c(=O)c5ccc(Cl)cc5nc34)CC2C)cc1", "note": "(stereo not drawn)", "activity change, negative = cytotoxicity": "inactive: 22.6%"},
      {"smiles": "CSc1nnc(C2CCN(CC(=O)Nc3ccccc3N3CCOCC3)CC2)n1C", "activity change, negative = cytotoxicity": "inactive: -5.06%"},
      {"smiles": "O=C1O/C(=C\\c2ccc(O)cc2)C(O)=C1c1ccc(O)cc1", "activity change, negative = cytotoxicity": "inactive: -8.38%"},
      {"smiles": "CCOc1cc2nc3c4ccccc4n(C)c3nc2cc1OCC", "activity change, negative = cytotoxicity": "inactive: -1.71%"},
      {"smiles": "CC(C)(C)OC(=O)N1CC=C2C(C#N)=C(N)C(C#N)(C#N)[C@H](c3cccnc3)[C@H]2C1", "Potency": "inconclusive: 16.4 µM [cytotoxic, partial curve]"},
      {"smiles": "CCC(C)NC(=O)c1cc2n(n1)CCCN(Cc1ccc(C)cc1)C2=O", "note": "(stereo not drawn)", "Potency": "inconclusive: 23.1 µM [cytotoxic, single point]"},
      {"smiles": "Cc1cc(C)c(C)c(S(=O)(=O)NCC(=O)NCc2ccco2)c1C", "Potency": "active: 18.4 µM"},
      {"smiles": "O=C(Nc1ccc(SC(F)F)cc1)c1cc(-c2ccncc2)nc2ccccc12", "activity change, negative = cytotoxicity": "inactive: 0%"},
      {"smiles": "C=CC[C@@H](CC(=O)N(CCO)Cc1ccccc1)C(=O)N[C@H](COC(=O)[C@@H](CC=C)Cc1ccc(F)cc1)Cc1c[nH]c2ccccc12", "Potency": "inconclusive: 29.1 µM [cytotoxic, single point]"},
      {"smiles": "CCOC(=O)c1[nH]c2ccc(Br)cc2c1NC(=O)CCN1CCC(C)CC1", "Potency": "inconclusive: 20.6 µM [cytotoxic, single point]"},
      {"smiles": "COc1ccc(CNc2ccc(C)c(C)c2)cc1", "activity change, negative = cytotoxicity": "inactive: -3.09%"},
      {"smiles": "C=CCn1c(-c2cc(Cl)ccc2OC)n[nH]c1=S", "Potency": "inconclusive: 23.1 µM [cytotoxic, partial curve, poor fit]"},
      {"smiles": "FC(F)(F)c1cnc(N2CCCN(C(=S)Nc3ccccc3)CC2)c(Cl)c1", "Potency": "inconclusive: 16.4 µM [cytotoxic, single point]"},
      {"smiles": "CCOCCCNC(=O)c1ccc2c(=O)n(CCc3ccccc3)c(=O)[nH]c2c1", "activity change, negative = cytotoxicity": "inactive: 19.5%"},
      {"smiles": "Cc1ccc(C)c(NC(=S)NCCc2c[nH]c3ccccc23)c1", "Potency": "inconclusive: 20.6 µM [cytotoxic, single point]"},
      {"smiles": "CN(C)CCNc1ncnc2ccc(-c3ccc4c(c3)OCO4)cc12", "activity change, negative = cytotoxicity": "inactive: -3.43%"},
      {"smiles": "FC(F)(F)c1cnc2c(-c3ccc(Cl)cc3Cl)noc2c1", "Potency": "inconclusive: 29.1 µM [rising, single point]"},
      {"smiles": "COc1cccc(C(=O)/C(C#N)=N/Nc2cccc(-c3ccnc(C)n3)c2)c1", "Potency": "inconclusive: 16.4 µM [cytotoxic, partial curve, poor fit]"},
      {"smiles": "Cc1cc(Cl)ccc1C(=O)C1CCCN(C(=O)c2ccc3ncccc3c2)C1", "note": "(stereo not drawn)", "Potency": "inconclusive: 8.2 µM [cytotoxic, partial curve]"},
      {"smiles": "N#Cc1ccc(/C=C/C(=O)c2cccnc2)cc1", "Potency": "inconclusive: 23.1 µM [cytotoxic, single point]"},
      {"smiles": "Nc1nnc(CC(c2ccccc2)c2ccccc2)s1", "Potency": "active: 23.1 µM"},
      {"smiles": "O=[N+]([O-])c1cc(S(=O)(=O)N2CCCC2)ccc1NN=C1CCCC1", "Potency": "active: 16.4 µM"},
      {"smiles": "COc1cc(NC(=O)COc2c(C)cc(C)cc2[N+](=O)[O-])c(OC)cc1Cl", "Potency": "inconclusive: 8.2 µM [cytotoxic, partial curve]"},
      {"smiles": "CCCS(=O)(=O)c1c(S(=O)(=O)CCC)c2c(N)cccn2c1C(=O)OC", "activity change, negative = cytotoxicity": "inactive: 9.54%"},
      {"smiles": "O=C(NC(=S)Nn1cnc2c(cnn2-c2ccccc2)c1=O)c1ccccc1", "activity change, negative = cytotoxicity": "inactive: -23.1%"},
      {"smiles": "COc1cccc(NC(=O)C2CCC(CNS(=O)(=O)c3csc(C(N)=O)c3)CC2)c1", "note": "(stereo not drawn)", "activity change, negative = cytotoxicity": "inactive: -7.26%"},
      {"smiles": "COc1cccc(CNc2ccc3[nH]c(=O)[nH]c3c2)c1OCc1ccccc1F", "activity change, negative = cytotoxicity": "inactive: 17.6%"},
      {"smiles": "Cc1nn2c(COc3ccc(NC(=O)C(C)C)cc3)nnc2c2ccccc12", "activity change, negative = cytotoxicity": "inactive: 11.2%"},
      {"smiles": "O=C(Nc1ccc(C(=O)O)cc1)/C(=C\\c1cccc([N+](=O)[O-])c1)NC(=O)c1ccc(Br)o1", "Potency": "inconclusive: 29.1 µM [rising, single point]"},
      {"smiles": "CCOc1cc(/C=C/c2ccc3cccc([N+](=O)[O-])c3n2)ccc1OCC(=O)N(C)C", "Potency": "active: 18.4 µM"},
      {"smiles": "COc1ccc(NC(=O)c2c(F)cccc2F)cc1S(=O)(=O)Nc1ccc(Br)cc1", "Potency": "active: 10.3 µM"},
      {"smiles": "Cc1cccc(-n2ncc3c(Nc4c(C)n(C)n(-c5ccccc5)c4=O)ncnc32)c1", "Potency": "active: 20.6 µM"},
      {"smiles": "CC(=O)c1ccc(NC(=O)CSc2nc(=O)n(Cc3ccccn3)c3c2CCC3)cc1", "activity change, negative = cytotoxicity": "inactive: 17%"},
      {"smiles": "O=C(CCCN1CCOC(c2ccccc2)C1)c1ccc(F)cc1", "note": "(stereo not drawn)", "activity change, negative = cytotoxicity": "inactive: -2.11%"},
      {"smiles": "COc1ccc(O)c(C(=O)C2c3ccccc3C(=O)N2c2ccc(C)cc2)c1", "note": "(stereo not drawn)", "Potency": "inconclusive: 23.1 µM [cytotoxic, partial curve, poor fit]"},
      {"smiles": "CCC(=O)c1cn(CC(=O)Nc2cccc(OC)c2)c2ccccc12", "activity change, negative = cytotoxicity": "inactive: 9.3%"},
      {"smiles": "CC(C)C(c1nnnn1C1CCCC1)N1c2ccccc2CC1C", "note": "(stereo not drawn)", "Potency": "active: 14.6 µM"},
      {"smiles": "O=C(Oc1ccc(/C=N/O)cc1)c1ccccc1Cl", "activity change, negative = cytotoxicity": "inactive: -11.9%"},
      {"smiles": "Cc1cc(N2CCOCC2)nc2ccc(NC(=O)CCC(=O)N3CCN(c4ccc(F)cc4)CC3)cc12", "Potency": "inconclusive: 9.2 µM [cytotoxic, partial curve]"},
      {"smiles": "CCc1ccccc1Nc1nn2c(=O)c3ccc(C(=O)NC(C)C)cc3nc2s1", "activity change, negative = cytotoxicity": "inactive: 10.6%"},
      {"smiles": "CC(=O)Nc1cncc(-c2ccccc2N(C)C)n1", "activity change, negative = cytotoxicity": "inactive: 5.05%"},
      {"smiles": "NC(=O)C1=C[C@H](c2ccc(Br)cc2)C[C@H](OCc2ccc(CO)cc2)O1", "activity change, negative = cytotoxicity": "inactive: -10.7%"},
      {"smiles": "COc1cccc(N2C(=O)C3C(C2=O)C3(c2ccccc2)c2ccccc2)c1", "note": "(stereo not drawn)", "Potency": "inconclusive: 4.61 µM [cytotoxic, partial curve]"},
      {"smiles": "COc1ccc(N2C(=O)C(C)C(Cc3ccc(C)cc3)C2=O)cc1", "note": "(stereo not drawn)", "Potency": "inconclusive: 20.6 µM [cytotoxic, single point]"},
      {"smiles": "COc1ccc(OC)c(S(=O)(=O)N2CCN(c3ncccn3)CC2)c1", "Potency": "inconclusive: 29.1 µM [cytotoxic, single point]"},
      {"smiles": "CCOc1ccc(/C=C2\\SC(=S)N(CCC(=O)Nc3cccc(C(=O)O)c3)C2=O)cc1", "Potency": "inconclusive: 25.9 µM [rising, single point]"},
      {"smiles": "COc1ccc(Cl)cc1NC(=O)COC(=O)c1cc(NS(=O)(=O)c2cccs2)ccc1O", "activity change, negative = cytotoxicity": "inactive: 22.3%"}
    ]}
  ]
}
